In doi:10.1101/2025.04.25.650714:
No constants are given. Whether binding was seen depends on the method and setting. For part of these data: In cells and extracts the contact can be indirect. Some entries that bind do so weakly or less than the wild type. For part of these data: Sequences can lack the tags named with a protein.

Amino acid sequences for entries named in this document (tags omitted).
UniProt Q9VZX9: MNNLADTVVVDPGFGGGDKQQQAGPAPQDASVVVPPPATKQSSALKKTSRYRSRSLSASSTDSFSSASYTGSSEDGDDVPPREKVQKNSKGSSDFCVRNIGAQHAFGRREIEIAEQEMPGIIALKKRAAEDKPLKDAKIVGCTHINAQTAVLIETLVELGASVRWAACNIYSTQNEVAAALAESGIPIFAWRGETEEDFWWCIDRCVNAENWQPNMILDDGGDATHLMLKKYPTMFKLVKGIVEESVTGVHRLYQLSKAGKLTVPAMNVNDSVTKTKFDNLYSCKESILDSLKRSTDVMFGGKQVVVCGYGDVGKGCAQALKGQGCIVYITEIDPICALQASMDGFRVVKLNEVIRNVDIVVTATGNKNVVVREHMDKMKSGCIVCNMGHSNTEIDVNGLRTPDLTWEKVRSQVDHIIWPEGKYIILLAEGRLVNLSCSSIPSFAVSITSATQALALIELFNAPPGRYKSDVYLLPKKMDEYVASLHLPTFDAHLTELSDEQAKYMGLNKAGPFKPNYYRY
UniProt P50245: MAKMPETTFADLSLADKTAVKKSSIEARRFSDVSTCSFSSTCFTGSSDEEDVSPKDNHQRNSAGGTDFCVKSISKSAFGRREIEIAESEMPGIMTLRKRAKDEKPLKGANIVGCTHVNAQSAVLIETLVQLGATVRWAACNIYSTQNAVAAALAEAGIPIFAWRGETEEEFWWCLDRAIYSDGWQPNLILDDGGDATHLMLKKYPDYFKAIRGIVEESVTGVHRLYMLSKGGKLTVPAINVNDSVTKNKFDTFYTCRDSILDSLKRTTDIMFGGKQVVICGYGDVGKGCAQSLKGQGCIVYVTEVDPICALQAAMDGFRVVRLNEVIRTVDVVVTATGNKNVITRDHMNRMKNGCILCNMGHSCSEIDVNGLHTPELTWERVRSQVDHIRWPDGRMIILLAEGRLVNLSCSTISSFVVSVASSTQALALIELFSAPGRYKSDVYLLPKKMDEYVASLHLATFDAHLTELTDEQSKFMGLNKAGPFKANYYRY

T1: Ahcy, yeast two-hybrid fusion (Drosophila) (UniProt Q27580)
T1 sequence: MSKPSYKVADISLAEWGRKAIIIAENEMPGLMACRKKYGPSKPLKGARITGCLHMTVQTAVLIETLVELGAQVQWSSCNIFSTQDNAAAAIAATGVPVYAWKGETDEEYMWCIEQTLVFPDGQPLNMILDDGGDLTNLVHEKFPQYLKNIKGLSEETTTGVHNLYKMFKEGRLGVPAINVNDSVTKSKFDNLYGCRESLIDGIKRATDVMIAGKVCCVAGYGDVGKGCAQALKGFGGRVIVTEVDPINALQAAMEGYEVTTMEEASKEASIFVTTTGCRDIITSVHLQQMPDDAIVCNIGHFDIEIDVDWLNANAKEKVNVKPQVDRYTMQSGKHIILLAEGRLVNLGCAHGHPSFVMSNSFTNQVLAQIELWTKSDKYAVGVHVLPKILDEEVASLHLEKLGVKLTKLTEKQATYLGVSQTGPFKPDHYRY

T2: S-adenosylhomocysteinase (Ahcy), epitope-tagged, overexpressed in S2 cells (Drosophila) (UniProt Q27580)
T2 sequence: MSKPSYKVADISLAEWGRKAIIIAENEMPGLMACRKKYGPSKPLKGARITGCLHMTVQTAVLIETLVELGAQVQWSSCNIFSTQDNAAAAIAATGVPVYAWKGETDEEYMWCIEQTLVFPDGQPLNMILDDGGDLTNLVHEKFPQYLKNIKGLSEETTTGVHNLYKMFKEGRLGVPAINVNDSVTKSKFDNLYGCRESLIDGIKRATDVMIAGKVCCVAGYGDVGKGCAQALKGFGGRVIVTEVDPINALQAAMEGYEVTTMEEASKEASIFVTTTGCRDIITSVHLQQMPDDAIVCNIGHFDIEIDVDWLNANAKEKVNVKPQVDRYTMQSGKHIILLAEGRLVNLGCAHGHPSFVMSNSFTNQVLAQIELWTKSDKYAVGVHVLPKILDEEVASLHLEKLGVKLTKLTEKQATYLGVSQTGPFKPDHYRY


Assays:
[1] = molecular target: T1, Ahcy, yeast two-hybrid fusion (Drosophila); experiment: two-hybrid
[2] = molecular target: AhcyL1, yeast two-hybrid fusion (Drosophila) (UniProt Q9VZX9); experiment: two-hybrid
[3] = molecular target: T2, S-adenosylhomocysteinase (Ahcy), epitope-tagged, overexpressed in S2 cells (Drosophila); experiment: co-IP
[4] = molecular target: AhcyL1, epitope-tagged, overexpressed in S2 cells (Drosophila) (UniProt Q9VZX9); experiment: co-IP

Molecule	binding [1]	binding [2]	binding [3]	binding [4]
AhcyL2, yeast two-hybrid fusion (from UniProt P50245 1-492)	no binding	no binding	–	–
AhcyL2, epitope-tagged, overexpressed in S2 cells (from UniProt P50245 1-492)	–	–	no binding	–
AhcyL1, yeast two-hybrid fusion (from UniProt Q9VZX9 1-521)	no binding	binds	–	–
AhcyL1, epitope-tagged, overexpressed in S2 cells (from UniProt Q9VZX9 1-521)	–	–	no binding	binds
S-adenosylhomocysteinase (Ahcy), epitope-tagged, overexpressed in S2 cells (enzyme, UniProt Q27580 1-432) MSKPSYKVADISLAEWGRKAIIIAENEMPGLMACRKKYGPSKPLKGARITGCLHMTVQTAVLIETLVELGAQVQWSSCNIFSTQDNAAAAIAATGVPVYAWKGETDEEYMWCIEQTLVFPDGQPLNMILDDGGDLTNLVHEKFPQYLKNIKGLSEETTTGVHNLYKMFKEGRLGVPAINVNDSVTKSKFDNLYGCRESLIDGIKRATDVMIAGKVCCVAGYGDVGKGCAQALKGFGGRVIVTEVDPINALQAAMEGYEVTTMEEASKEASIFVTTTGCRDIITSVHLQQMPDDAIVCNIGHFDIEIDVDWLNANAKEKVNVKPQVDRYTMQSGKHIILLAEGRLVNLGCAHGHPSFVMSNSFTNQVLAQIELWTKSDKYAVGVHVLPKILDEEVASLHLEKLGVKLTKLTEKQATYLGVSQTGPFKPDHYRY	–	–	binds	–
Ahcy, yeast two-hybrid fusion (enzyme, UniProt Q27580 1-432) MSKPSYKVADISLAEWGRKAIIIAENEMPGLMACRKKYGPSKPLKGARITGCLHMTVQTAVLIETLVELGAQVQWSSCNIFSTQDNAAAAIAATGVPVYAWKGETDEEYMWCIEQTLVFPDGQPLNMILDDGGDLTNLVHEKFPQYLKNIKGLSEETTTGVHNLYKMFKEGRLGVPAINVNDSVTKSKFDNLYGCRESLIDGIKRATDVMIAGKVCCVAGYGDVGKGCAQALKGFGGRVIVTEVDPINALQAAMEGYEVTTMEEASKEASIFVTTTGCRDIITSVHLQQMPDDAIVCNIGHFDIEIDVDWLNANAKEKVNVKPQVDRYTMQSGKHIILLAEGRLVNLGCAHGHPSFVMSNSFTNQVLAQIELWTKSDKYAVGVHVLPKILDEEVASLHLEKLGVKLTKLTEKQATYLGVSQTGPFKPDHYRY	binds	–	–	–
